These results are taken from the supplement of paper PMC4635364.

Test [1] concerns ReNCell VM. Description: neuronal differentiation score (DCX+ cell fraction vs untreated, manual image score) (score (-3 to 3)); higher = more neuronal differentiation. The following applies: 2 uM, 2 weeks.
The test system of test [2] is ReNCell VM. Description: dopaminergic neuron differentiation score (TH+ cell fraction vs untreated, manual image score) (score (0 to 3)); higher = more TH+ dopaminergic neuron differentiation. The following applies: 2 uM, 4 weeks, BDNF 10 ng/ml + GDNF 10 ng/ml.

The structures appear in SMILES notation. The list shows a part of the results. Single values are uncertain here, since repeats match poorly.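 Human fetal ventral-midbrain neural progenitor line ReNCell VM, differentiated without mitogens. Images stained for doublecortin (early neurons) or tyrosine hydroxylase (dopaminergic neurons) were scored by blinded raters against untreated wells (0 = no change). Repeats and both raters were averaged, and compounds averaging 2 or higher were picked as hits for retesting.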

For `CC(=O)OCC(=O)[C@@]1(OC(C)=O)[C@@H](C)C[C@H]2[C@@H]3C[C@H](F)C4=CC(=O)C=C[C@]4(C)[C@@]3(F)[C@@H](O)C[C@@]21C` [Diflorasone Diacetate], the neuronal differentiation score in test [1] (library: Prestwick) was inactive: 0. In addition, in test [2] (library: Prestwick), the “dopaminergic neuron differentiation score” value is inactive: 0.

For `c1ccc2[nH]c(-c3cscn3)nc2c1` [Tiabendazole], the neuronal differentiation score in test [1] (library: Prestwick) was inactive: 0. Besides, the “dopaminergic neuron differentiation score” value in test [2] (library: Prestwick) was inactive: 0.

Regarding `N[C@@H](CC(=O)O)C(=O)O`, the neuronal differentiation score in test [1] (library: Spectrum) was inactive: 0. Further, the “dopaminergic neuron differentiation score” value in test [2] (library: Spectrum) was inactive: 0.

Regarding `COC(=O)c1c(C)c2c(c(C)c1O)OC(=O)c1c(C)c(Cl)c(O)c(Cl)c1O2`, the neuronal differentiation score in test [1] (library: Spectrum) was inactive: 0. Besides, the “dopaminergic neuron differentiation score” value in test [2] (library: Spectrum) was inactive: 0.

`COC(=O)C(Cc1ccc(OCCn2c(=O)sc3cc(C(=O)c4ccccc4)ccc32)cc1)C(=O)OC`: the neuronal differentiation score in test [1] (library: Tocriscreen) was inactive: 0. For the same compound, the “dopaminergic neuron differentiation score” value in test [2] (library: Tocriscreen) is inactive: 1.

For `O=C(O)c1ccccc1Nc1cccc(C(F)(F)F)c1`, the neuronal differentiation score in test [1] (library: Spectrum) is inactive: 0. Also, the “dopaminergic neuron differentiation score” value in test [2] (library: Spectrum) is inactive: 0.

Take `CC(=O)OCC1=C(C(=O)O)N2C(=O)[C@@H](NC(=O)Cc3cccs3)[C@H]2SC1`: the neuronal differentiation score in test [1] (library: Spectrum) was inactive: 1. Further, the “dopaminergic neuron differentiation score” value in test [2] (library: Spectrum) was inactive: 0.

As for `CCC(=O)O[C@]1(C(=O)SCF)[C@H](C)C[C@H]2[C@@H]3C[C@H](F)C4=CC(=O)C=C[C@]4(C)[C@@]3(F)[C@@H](O)C[C@@]21C`, the neuronal differentiation score in test [1] (library: Spectrum) was inactive: 0. For the same compound, the “dopaminergic neuron differentiation score” value in test [2] (library: Spectrum) is inactive: 0.

In the case of `CN(C)CCC[C@@]1(c2ccc(F)cc2)OCc2cc(C#N)ccc21`, the neuronal differentiation score in test [1] (library: Spectrum) is inactive: 0. Also, the “dopaminergic neuron differentiation score” value in test [2] (library: Spectrum) was inactive: 1.

Consider `Cc1cnc(NC(=O)C2=C(O)c3ccccc3S(=O)(=O)N2C)s1` [Meloxicam sodium], for which the neuronal differentiation score in test [1] (library: LOPAC) was inactive: 0. For the same compound, in test [2] (library: LOPAC), the “dopaminergic neuron differentiation score” value is inactive: 0.

In the case of `C=C/C(C)=C/[C@@]1(C)SC(=O)C(C)=C1O` [Thiolactomycin], in test [1] (library: LOPAC), the neuronal differentiation score was inactive: 0. In test [2] (library: LOPAC), the “dopaminergic neuron differentiation score” value was inactive: 0.

In the case of `CCOc1ccc(C(=O)c2ccc(OC)c(O)c2O)cc1`, the neuronal differentiation score in test [1] (library: Spectrum) is inactive: 0. The “dopaminergic neuron differentiation score” value in test [2] (library: Spectrum) is inactive: 0.

As to `COc1ccc2c(c1)c(CC(=O)N1CCOCC1)c(C)n2C(=O)c1ccc(Cl)cc1`, in test [1] (library: Tocriscreen), the neuronal differentiation score was inactive: 0. Also, the “dopaminergic neuron differentiation score” value in test [2] (library: Tocriscreen) is inactive: 0.

Turning to `CC(=O)OCC1=C(C(=O)O)N2C(=O)[C@@H](NC(=O)CSc3ccncc3)[C@H]2SC1` [Cephapirin sodium], the neuronal differentiation score in test [1] (library: LOPAC) was inactive: 0. For the same compound, the “dopaminergic neuron differentiation score” value in test [2] (library: LOPAC) was inactive: 0.

On to `CC#CCn1c(N2CCC[C@@H](N)C2)nc2c1c(=O)n(Cc1nc(C)c3ccccc3n1)c(=O)n2C`, for which the neuronal differentiation score in test [1] (library: Spectrum) was inactive: 0. The “dopaminergic neuron differentiation score” value in test [2] (library: Spectrum) was inactive: 0.

For `O=c1c(O)cccc2cc(O)c(O)c(O)c12`, the neuronal differentiation score in test [1] (library: Spectrum) is inactive: 0. The “dopaminergic neuron differentiation score” value in test [2] (library: Spectrum) was inactive: 0.

Regarding `NC(=NCCC[C@H](N)C(=O)O)NO` [NG-Hydroxy-L-arginine acetate], the neuronal differentiation score in test [1] (library: LOPAC) is inactive: 0. Besides, in test [2] (library: LOPAC), the “dopaminergic neuron differentiation score” value is inactive: 0.

As for `CC1=CC(=O)c2ccccc2C1=O` [Menadione], in test [1] (library: Phytochemical), the neuronal differentiation score is inactive: 0. The “dopaminergic neuron differentiation score” value in test [2] (library: Phytochemical) is active: 3.

Turning to `CC(=O)CC(c1ccc([N+](=O)[O-])cc1)c1c(O)c2ccccc2oc1=O` (stereo not drawn) [Acenocoumarol], the neuronal differentiation score in test [1] (library: Prestwick) was inactive: 0. Further, in test [2] (library: Prestwick), the “dopaminergic neuron differentiation score” value is inactive: 1.

With `CCOC(=O)C1=C(C)NC(C)=C(C(=O)OC)C1c1cccc([N+](=O)[O-])c1` (stereo not drawn), the neuronal differentiation score in test [1] (library: Spectrum) was inactive: 0. Moreover, in test [2] (library: Spectrum), the “dopaminergic neuron differentiation score” value is inactive: 0.

Turning to `N[C@H](C(=O)O)c1cc(O)cc(O)c1`, the neuronal differentiation score in test [1] (library: Tocriscreen) was inactive: 0. The “dopaminergic neuron differentiation score” value in test [2] (library: Tocriscreen) is inactive: 0.

As to `CO/N=C(\C(=O)N[C@@H]1C(=O)N2C(C(=O)O)=C(COC(C)=O)CS[C@H]12)c1csc(N)n1` [Cefotaxime sodium], in test [1] (library: LOPAC), the neuronal differentiation score was inactive: -1. In addition, the “dopaminergic neuron differentiation score” value in test [2] (library: LOPAC) was inactive: 1.

With `CN[C@H]1CC[C@@]2(C)C(=CC[C@H]3[C@@H]4CC[C@@H]5[C@H](C)N(C)C[C@@]54CC[C@@H]32)C1` [Isoconessimine], in test [1] (library: Phytochemical), the neuronal differentiation score was inactive: 0. Further, the “dopaminergic neuron differentiation score” value in test [2] (library: Phytochemical) is inactive: 0.

On to `O=C(O)[C@]1(O)C[C@@H](O)[C@@H](O)[C@H](O)C1`, for which the neuronal differentiation score in test [1] (library: Spectrum) was inactive: 0. Further, the “dopaminergic neuron differentiation score” value in test [2] (library: Spectrum) is inactive: 0.

Take `Cc1c(Cl)cccc1Nc1ccccc1C(=O)O` [Tolfenamic acid]: the neuronal differentiation score in test [1] (library: Prestwick) is inactive: 0. Further, the “dopaminergic neuron differentiation score” value in test [2] (library: Prestwick) is inactive: 0.

Take `CC[C@@H](CO)NCCN[C@@H](CC)CO`: in test [1] (library: Spectrum), the neuronal differentiation score is inactive: 0. Also, in test [2] (library: Spectrum), the “dopaminergic neuron differentiation score” value is inactive: 0.

On to `Cc1nnc(SCC2=C(C(=O)O)N3C(=O)[C@@H](NC(=O)Cn4cnnn4)[C@H]3SC2)s1`, for which the neuronal differentiation score in test [1] (library: Spectrum) was inactive: 0. Besides, the “dopaminergic neuron differentiation score” value in test [2] (library: Spectrum) is inactive: 0.

For `O=c1c(O)c(Br)ccc2c(Br)c(O)c(O)c(O)c12` [3,6-dibromo-purpurogallin], the neuronal differentiation score in test [1] (library: Natural) was inactive: 0. Also, the “dopaminergic neuron differentiation score” value in test [2] (library: Natural) was inactive: 0.

With `C[C@@H]1CC(=O)NN=C1c1ccc(NN=C(C#N)C#N)cc1`, the neuronal differentiation score in test [1] (library: Spectrum) is inactive: 0. Also, in test [2] (library: Spectrum), the “dopaminergic neuron differentiation score” value is inactive: 0.

Regarding `CCCCCCCC/C=C/CCCCCCCCOP(=O)([O-])OCC[N+](C)(C)C`, the neuronal differentiation score in test [1] (library: Spectrum) was inactive: 0. Also, the “dopaminergic neuron differentiation score” value in test [2] (library: Spectrum) was inactive: 0.

In the case of `C[C@@H](NC(=O)/C(C#N)=C/c1ccc(O)c(O)c1)c1ccccc1` [Tyrphostin AG 527], the neuronal differentiation score in test [1] (library: LOPAC) is inactive: 0. Moreover, in test [2] (library: LOPAC), the “dopaminergic neuron differentiation score” value was inactive: 0.

Turning to `Cc1nc2ccccc2n1Cc1ccc(Cl)cc1`, in test [1] (library: Spectrum), the neuronal differentiation score is inactive: 0. The “dopaminergic neuron differentiation score” value in test [2] (library: Spectrum) is inactive: 0.

As to `Cc1cc(C)cc(C(=O)N(C)[C@H](Cc2ccc(-c3ccccc3)cc2)C(=O)N[C@@H](Cc2c[nH]c3ccccc23)C(=O)O)c1`, the neuronal differentiation score in test [1] (library: Tocriscreen) was inactive: 0. Moreover, the “dopaminergic neuron differentiation score” value in test [2] (library: Tocriscreen) is inactive: 0.

For `COc1ccc(CN(CCN(C)C)c2ncccn2)cc1`, the neuronal differentiation score in test [1] (library: Spectrum) was inactive: 0. The “dopaminergic neuron differentiation score” value in test [2] (library: Spectrum) is inactive: 0.
